# Experimental data published in paper PMC12040169 (PLOS Biology, 2025).
# The other results are listed elsewhere or left out.
# Test system: T1, CTL2-GFP (C. trachomatis L2/434/Bu, GFP-expressing)
# T1 construct: L2/434/Bu, GFP-expressing
# Parameters: species or system HeLa; Intracellular C. trachomatis growth in HeLa cells, bulk GFP fluorescence relative to DMSO
# Conditions: bulk GFP, single well; 28.5 h, 10 µM; inhibitor
row,Compound,% of control remaining [%]
1,COc1ccc(-n2nc3cc(C)c(NC(=S)NC(=O)/C=C/c4ccco4)cc3n2)cc1 [CBK264359],100
2,O=C(NCC1CCCO1)NC(=O)c1nsc2ccccc12 (centres unmarked) [CBK019827],87.9353
3,O=C(Nc1ccccc1)N(O)CC(O)COc1ccccc1 (centres unmarked) [CBK288399],148.577
4,CCOC(=O)CNC(=O)N1CCCC1c1nc(-c2ccccc2)c2ccccn12 (centres unmarked) [CBK046502],100.225
5,Cc1c(C2CC(C(F)(F)F)n3nccc3N2)cnn1C (centres unmarked) [CBK288015],104.218
6,COc1ccc(CCN2C(=O)CC(C(=O)O)S/C2=N\c2ccccc2)cc1 (centres unmarked) [CBK286606],121.174
7,O=C(O)CC1c2ccccc2Oc2ccccc21 [CBK261836],99.0626
8,O=P(O)(CN1CCOCC1)CN1CCOCC1 [CBK260914],94.9736
9,CCOC(=O)N1CCC(NS(=O)(=O)Cc2ccccc2[N+](=O)[O-])CC1 [CBK045467],61.2202
10,COc1nccnc1N1CCN(CCc2ccccc2)CC1 [CBK084228],114.995
11,CCn1c(SCC(=O)Nc2ccc(C#N)cc2)nnc1-c1ccncc1 [CBK270102],134.461
12,COc1ccc(-c2cnc(NCCOc3ccccc3)c(C(=O)NCC3COc4ccccc4O3)c2)cc1 (centres unmarked) [CBK076332],84.3486
13,CCC(Sc1nc2ccc(F)cc2[nH]1)C(=O)O (centres unmarked) [CBK287174],89.8915
14,Cc1ccc(Nc2cc(-c3ccsc3)ncn2)cc1NS(C)(=O)=O [CBK091149],112.694
15,COc1cc2c(cc1OC)CN(CC(O)COc1cccc3c1CCCC3)CC2 (centres unmarked) [CBK003828],102.077
16,CSc1ncccc1C(=O)NCc1ccc(NC(C)=O)cc1 [CBK305009],119.918
17,Nc1nc2cccnc2cc1-c1cccc(C(F)(F)F)c1 [CBK081200],62.4237
18,O=C(NC(Cc1ccccc1)N1C(=O)c2ccccc2C1=O)N1CCCc2ccccc21 (centres unmarked) [CBK265551],91.6846
19,O=C(Nc1ccccc1[N+](=O)[O-])C1(c2ccccc2)CCN(S(=O)(=O)c2ccccc2)CC1 [CBK267796],122.649
20,Nc1ncnc2c1nc1n2[C@H]2C[C@@H](O)[C@H](O2)[C@H]1O [CBK201183],150.745
21,O=C(OCc1ccccc1)N1CCC(n2ccn(C(=O)CCC3CCCC3)c2=O)CC1 [CBK106670],100
22,Cc1cc(C(=O)N2CCCc3ccccc32)n[nH]1 [CBK200346],164.915
23,CC(C)(C)c1ccc(-c2cnc3nc(O)ccc3c2)cc1 [CBK081284],145.043
24,COC(=O)c1ccccc1S(=O)(=O)n1c(=O)n(CCc2c[nH]c3ccccc23)c2ccccc21 [CBK106509],146.036
25,COCCNc1nccnc1-c1cccs1 [CBK036739],93.9299
26,Cc1cc(Cc2cnc(NC(=O)C3CCS(=O)(=O)C3)s2)ccc1Br (centres unmarked) [CBK298281],93.6946
27,CN(CC(=O)Nc1sc2c(c1C#N)CCCC2)Cc1cnn(C)c1 [CBK304618],129.246

row,Compound,% of control remaining [%]
1,CCN(CC)C(=O)CN1CCCN(c2cc(OCc3cc(C)on3)ncn2)CC1 [CBK083337T],107.175
2,O=C(CO)N1CC2(CCN(Cc3ccc(Cl)c(Cl)c3)CC2)c2ccccc21 [CBK131495],83.7584
3,Cc1ccc(S(=O)(=O)NCC23C=CC(O2)C2C(=O)N(Cc4ccccc4)C(=O)C23)cc1 (centres unmarked) [CBK261170],85.4229
4,Cc1nc(-c2cccnc2)sc1C(=O)NC(C)C1CC2CCC1C2 (centres unmarked) [CBK281637],136.16
5,CCc1ccc(NC(=O)CN2CCN(c3ccccc3F)CC2)cc1 [CBK307549],103.41
6,O=C(O)C(Cc1ccccc1)Nc1ncnc2sc3c(c12)CCC3 (centres unmarked) [CBK265266],110.225
7,COC(=O)c1ccc(NC(=O)N2CCCCC2CCn2ccnc2)cc1 (centres unmarked) [CBK307195],138.694
8,CCCN1C(C)=NS(=O)(=O)c2cc(C(=O)O)ccc21 [CBK287251],112.666
9,CCOC(=O)C1CCCN(CCC(=O)Nc2ccccc2)C1 (centres unmarked) [CBK264192C],115.061
10,O=C(O)c1cc(NC(=O)c2cccc(N3C(=O)c4ccc([N+](=O)[O-])cc4C3=O)c2)cc(C(=O)O)c1 [CBK261394],101.945
11,COc1ccc(-c2nc3cc(NC(=O)COc4ccccc4[N+](=O)[O-])ccc3o2)cc1Cl [CBK263412],120.2
12,COc1ccc(CN(C(=O)CCN2C(=O)c3ccccc3S2(=O)=O)c2ccccc2O)cc1 [CBK265973],100
13,COc1cc([N+](=O)[O-])ccc1NC(=O)NCc1ccco1 [CBK266855],134.326
14,NS(=O)(=O)c1ccccc1NC(=O)NC1CCCCC1 [CBK016919],157.107
15,O=C(CSc1nnc(-c2ccccc2O)n1Cc1ccccc1)NC12CC3CC(CC(C3)C1)C2 [CBK266075],100.809
16,CCOC(=O)CNS(=O)(=O)c1cccc2cccnc12 [CBK034440],97.943
17,O=C(NC(=S)Nc1ccccc1C(=O)O)c1ccc(Cl)cc1 [CBK265044],88.4666
18,O=C(O)C1CCCCC1C(=O)N1CCN(C(c2ccccc2)c2ccccc2)CC1 (centres unmarked) [CBK265480],113.381
19,O=C(OCCC1SC(NC2CC3C=CC2C3)=NC1=O)c1cc(F)ccc1F (centres unmarked) [CBK200059T],134.071
20,CN1CCCC1CCNC(=O)c1ccc(-c2ccoc2)nc1 (centres unmarked) [CBK156255],100
21,COc1ccc(Cn2nc3nnc(-c4ccc(F)cc4)c(-c4ccc(F)cc4)n3c2=O)cc1 [CBK286183],83.1369
22,COc1cc2c(cc1OC)CN(CC(N)=O)CC2 [CBK126391],102.312
23,CCN1CC(C(=O)N2CCCC(COc3ccc(F)cc3)C2)CC1=O (centres unmarked) [CBK282028],145.313
24,CCN(CC)C(=O)CN(CCc1ccc(OC)c(OC)c1)C(=O)NCCN1CCOCC1 [CBK158734],111.731
25,CCOC(=O)C1(Cc2cc(-c3ccc(F)cc3)no2)CCNCC1 [CBK284581],116.751
26,CCN(Cc1ccncc1)C(=O)NCc1cccnc1 [CBK145054],110.57
27,O=C(NCCC1=CCCCC1)Nc1ccc(F)c(F)c1F [CBK043265],147.45

# Molecules listed so far with a cyano group (2):
row,Compound,% of control remaining [%]
11,CCn1c(SCC(=O)Nc2ccc(C#N)cc2)nnc1-c1ccncc1 [CBK270102],134.461
27,CN(CC(=O)Nc1sc2c(c1C#N)CCCC2)Cc1cnn(C)c1 [CBK304618],129.246

# Next records:

row,Compound,% of control remaining [%]
1,Cc1occc1C(=O)Nc1nc(CC(=O)N2CC(C)SC(C)C2)cs1 (centres unmarked) [CBK306271],133.061
2,CC(=O)Cn1nnnc1C [CBK020588],131.165
3,COc1ccc(Nc2cccc(-c3cnc(OC)nc3OC)n2)cc1 [CBK036825],183.484
4,Cn1ncc(N2CCC(CNC(=O)c3ccc(F)cc3Cl)C2)cc1=O (centres unmarked) [CBK306643],110.41
5,CN(CC(N)=O)c1nc(-c2cccnc2)nc2ccccc12 [CBK306346],157.305
6,N#Cc1ccc(C(=O)N2C[C@@H]3C[C@H](C2)c2c(-c4cccc(C#N)c4)ccc(=O)n2C3)cc1 [CBK289196],130.652
7,c1ccc2c(Sc3cncc(N4CCCC4)n3)cccc2c1 [CBK089594],101.208
8,COc1ccc(C(=O)/C=C(\Nc2cccc(C(F)(F)F)c2)C(=O)O)cc1 [CBK264387],133.799
9,CCOC(=O)Cn1nc(C)c(Cc2c(Cl)cccc2Cl)c1CC [CBK113223],125.109
10,Cc1ccn(-c2ccc(N3CCC4(CCOC4)C3)nn2)n1 (centres unmarked) [CBK306302],170.99
11,COc1ccc(/C=C/C(=O)O)cc1S(=O)(=O)NCc1ccccc1 [CBK287252],126.777
12,COc1ccc2[nH]c3c(c2c1)CCNC31CCN(C(=O)NC(C)(C)C)CC1 [CBK047069],119.756
13,O=C(c1ccc(N2CCSCC2)nc1)N1CCC(N2CCOCC2)CC1 [CBK306582],88.6115
14,Cc1ccc2cc(S(=O)(=O)NCCCC(=O)O)ccc2c1 [CBK299818],119.854
15,O=C(Nc1ccc(S(=O)(=O)Nc2nccc(C3Cc4ccccc4C(=O)O3)n2)cc1)c1ccccc1 (centres unmarked) [CBK267306],120.14
16,Cc1nc(C)c(CCC(=O)Nc2cccc(F)c2)c(=O)[nH]1 [CBK305026],131.189
17,C#CCn1c(=O)n(C)n(C)c1=O [CBK023151],146.612
18,CCN(c1ccccc1C(=O)O)S(=O)(=O)/C=C/c1ccccc1 [CBK287236],116.148
19,O=C(c1cnccc1C(F)(F)F)N1CCc2ccccc21 [CBK200401],97.2818
20,O=C(/C=C/c1ccc2c(c1)OCO2)NCc1ccc(-c2csnn2)cc1 [CBK149297],125.463
21,CC(C)(O)C#Cc1ccc(C(=O)N2CCCC2C(=O)O)s1 (centres unmarked) [CBK286869],127.692
22,NS(=O)(=O)c1ccc(Nc2ncccc2[N+](=O)[O-])cc1 [CBK261724],104.862
23,Cc1noc(C)c1CN1CCC(Cc2ccccc2)CC1 [CBK305752],109.486
24,COC(=O)c1cc(NC(=O)CC2Sc3ccccc3NC2=O)cc(C(=O)OC)c1 (centres unmarked) [CBK266260],123.143
25,OC(CNCCc1c[nH]c2ccccc12)COc1cccc2c1CCCC2 (centres unmarked) [CBK003831],86.2004
26,COc1cc(CNC2CCCCCC2)c([N+](=O)[O-])cc1OC [CBK262194],100

# Copied from the list.
# CCN(c1ccccc1C(=O)O)S(=O)(=O)/C=C/c1ccccc1 [CBK287236] | % of control remaining [%]: 116.148
# CCOC(=O)Cn1nc(C)c(Cc2c(Cl)cccc2Cl)c1CC [CBK113223] | % of control remaining [%]: 125.109
